Literature values as cited in patent US20200093795A1 (Secura Bio, Inc., priority 2015, published 2020).
For at least one compound, name, drawing or mass did not settle the structure.

Tested on: patients with relapsed multiple myeloma
Conditions: added to bortezomib and dexamethasone; relapsed or relapsed and refractory multiple myeloma; Richardson et al. 2014; cited from earlier work

Compound: Cc1[nH]c2ccccc2c1CCNCc1ccc(/C=C/C(=O)NO)cc1 [panobinostat]
- progression-free survival (PFS): significantly extended progression-free survival
